Laboratory results: PubChem BioAssay AID1224830 (NIAID, 2016)

Purpose: 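Regulators of TLR4 signalling towards TNF-alpha in macrophage-like cells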 (primary screen)
System: human THP-1 monocytic leukaemia cells, TNF dual-luciferase reporter clone, PMA-differentiated to macrophage-like cells
Reagents: siRNA pool against human genes, 50 nM
Time to read-out: LPS for 4 h, given about 3 days after siRNA transfection
Conditions: bacterial LPS (TLR4 ligand), 10 ng/ml
Read-out: 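Ratio of firefly to renilla light, scaled to the plate median and expressed as a robust z-score per replicate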
Scale: TNF reporter robust z-score: higher = stronger TNF reporter response to LPS
Hit rule: 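a well is active when its z-score exceeds 2.8 or falls below -1.5; control wells carry no call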
Shown is one part, drawn at random, of about 18,000 reagents tested. Of all reagents, about 2,900 (16%) are marked active. 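Calls are made per well; low scores hint the gene aids the LPS response, high scores that it dampens it.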 Entries without a mark were called inactive. Repeated entries: four replicate wells of each siRNA pool. Reagent sequences are not shown.

| gene | TNF reporter robust z-score |
| --- | --- |
| PPP1R1C | -0.31 |
| PPP1R1C | 0.47 |
| PPP1R1C | 1.32 |
| PPP1R1C | -0.06 |
| PROP1 | -0.18 |
| PROP1 | 0.08 |
| PROP1 | 0.19 |
| PROP1 | 0.26 |
| GAL3ST4 | -0.29 |
| GAL3ST4 | -0.77 |
| GAL3ST4 | -0.38 |
| GAL3ST4 | -0.62 |
| METTL22 | -0.54 |
| METTL22 | 0.46 |
| METTL22 | -0.38 |
| METTL22 | -0.39 |
| KDM5C | 1.49 |
| KDM5C | -0.48 |
| KDM5C | 0.86 |
| KDM5C | -0.75 |
| HTR2B | -0.53 |
| HTR2B | 0.92 |
| HTR2B | 0.65 |
| HTR2B | 0.95 |
| KPNA4 | -0.99 |
| KPNA4 | 4.69 (active) |
| KPNA4 | 2.91 (active) |
| KPNA4 | 1.54 |
| ZNF629 | 0.77 |
| ZNF629 | 1.25 |
| ZNF629 | -0.8 |
| ZNF629 | -1.38 |
| INTS5 | 1.5 |
| INTS5 | 1.69 |
| INTS5 | 0.3 |
| INTS5 | 1.08 |
| ZNF223 | -0.11 |
| ZNF223 | -0.06 |
| ZNF223 | -1.29 |
| ZNF223 | 0.15 |
| AGO4 | -0.7 |
| AGO4 | -0.27 |
| AGO4 | -0.55 |
| AGO4 | -0.73 |
| RNF34 | -0.28 |
| RNF34 | 0.78 |
| RNF34 | 0.24 |
| RNF34 | -0.09 |
| MMP26 | 0.32 |
| MMP26 | -0.25 |
| MMP26 | -0.66 |
| MMP26 | -0.32 |
| MYOCD | 0.01 |
| MYOCD | -0.63 |
| MYOCD | 0.11 |
| MYOCD | 0.82 |
| CENPN | 0.87 |
| CENPN | 0.86 |
| CENPN | 2.63 |
| CENPN | 0.23 |
| MAOB | 0.95 |
| MAOB | 1.33 |
| MAOB | 1.4 |
| MAOB | 2.02 |
| UGP2 | 1.32 |
| UGP2 | 0.22 |
| UGP2 | -0.72 |
| UGP2 | 0.64 |
| CLEC11A | 0.55 |
| CLEC11A | -0.64 |
| CLEC11A | 0.08 |
| CLEC11A | 0.34 |
| EHD3 | 0.33 |
| EHD3 | 1.85 |
| EHD3 | 0.15 |
| EHD3 | 0.41 |
| METTL21A | 0.34 |
| METTL21A | 0.66 |
| METTL21A | 0.38 |
| METTL21A | -0.51 |
| RUMY4 | -0.47 |
| RUMY4 | -0.89 |
| RUMY4 | -1.16 |
| RUMY4 | 0.64 |
| CNTN6 | -0.48 |
| CNTN6 | -0.36 |
| CNTN6 | 0.06 |
| CNTN6 | 1.46 |
| WDCP | -0.23 |
| WDCP | 0.68 |
| WDCP | 0.51 |
| WDCP | 2.69 |
| IRF2 | 1.96 |
| IRF2 | 1.61 |
| IRF2 | -1.47 |
| IRF2 | 0.88 |
| OR9G9 | -0.91 |
| OR9G9 | -0.07 |
| OR9G9 | 0.05 |
| TMEM33 | -0.1 |
| TMEM33 | 0.3 |
| TMEM33 | -1.08 |
| TMEM33 | 1.29 |
| TLE6 | -1.25 |
| TLE6 | -0.26 |
| TLE6 | 0.42 |
| TLE6 | 0.08 |
| NT5E | -0.27 |
| NT5E | -0.12 |
| NT5E | -0.26 |
| NT5E | 0.85 |

8 successive entries from above:
| gene | TNF reporter robust z-score |
| --- | --- |
| WDCP | 2.69 |
| IRF2 | 1.96 |
| IRF2 | 1.61 |
| IRF2 | -1.47 |
| IRF2 | 0.88 |
| OR9G9 | -0.91 |
| OR9G9 | -0.07 |
| OR9G9 | 0.05 |
